{"source": "patent US5223526A", "about": "“Pyrazole carboxanilide fungicides and use” (Monsanto Company, priority 1992, dated 1993)", "system": "Botrytis", "experiment": "Field tests, vineyards", "type": "in vivo", "settings": "0.01 to 2.0 kg active ingredient per hectare", "note": "Some of these results come from one statement about several compounds together.", "data": [{"smiles": "Cn1cc(C(=O)Nc2ccccc2OCCCC2CCCC2)c(C(F)F)n1", "note": "[Example 48, 1H-pyrazole-4-carboxamide, N-[2-(3-cyclopentylpropoxy)phenyl]-3-(difluoromethyl)-1-methyl-]", "values": [{"measurement": "incidence of Botrytis compared to untreated fields", "result": "reduce the incidence of Botrytis compared to untreated fields"}]}, {"smiles": "Cc1ccc(NC(=O)c2cn(C)nc2C(F)(F)F)c(C2CCCCC2)c1", "note": "[Example 29, 1H-pyrazole-4-carboxamide, N-(2-cyclohexyl-4-methylphenyl)-1-methyl-3-(trifluoromethyl)-]", "values": [{"measurement": "incidence of Botrytis compared to untreated fields", "result": "reduce the incidence of Botrytis compared to untreated fields"}]}, {"smiles": "Cn1cc(C(=O)Nc2ccccc2O[C@@H]2C[C@H]3CC[C@@H]2C3)c(C(F)F)n1", "note": "(relative stereo) [Example 80, 1H-pyrazole-4-carboxamide, N-[2-(bicyclo[2.2.1]hept-2-yloxy)-phenyl]-3-(difluoromethyl)-1-methyl-, exo-]", "values": [{"measurement": "incidence of Botrytis compared to untreated fields", "result": "reduce the incidence of Botrytis compared to untreated fields"}]}, {"smiles": "Cc1c(C(=S)Nc2ccccc2[C@@H]2C[C@H]3CC[C@@H]2C3)c(Cl)nn1C", "note": "(relative stereo) [Example 103, 1H-pyrazole-4-carbothioamide, N-(2-bicyclo[2.2.1]hept-2-ylphenyl)-3-chloro-1,5-dimethyl-, exo-]", "values": [{"measurement": "incidence of Botrytis compared to untreated fields", "result": "reduce the incidence of Botrytis compared to untreated fields"}]}, {"smiles": "Cn1cc(C(=S)Nc2ccccc2[C@@H]2C[C@H]3CC[C@@H]2C3)c(C(F)F)n1", "note": "(relative stereo) [Example 102, 1H-pyrazole-4-carbothioamide, N-(2-bicyclo[2.2.1]hept-2-ylphenyl)-3-(difluoromethyl)-1-methyl-, exo-]", "values": [{"measurement": "incidence of Botrytis compared to untreated fields", "result": "reduce the incidence of Botrytis compared to untreated fields"}]}, {"smiles": "C[C@@H]1CCC[C@H](C)[C@@H]1Oc1ccccc1NC(=O)c1cn(C)nc1C(F)(F)F", "note": "[Example 74, 1H-pyrazole-4-carboxamide, 1-methyl-N-[2-[(2,6-dimethylcyclohexyl)oxy]phenyl]-3-(trifluoromethyl)-, (lalpha,2alpha,6alpha)-]", "values": [{"measurement": "incidence of Botrytis compared to untreated fields", "result": "reduce the incidence of Botrytis compared to untreated fields"}]}, {"smiles": "Cn1cc(C(=O)Nc2ccccc2C2CCC(C(C)(C)C)CC2)c(C(F)F)n1", "note": "(stereo not shown) [Example 134]", "values": [{"measurement": "incidence of Botrytis compared to untreated fields", "result": "reduce the incidence of Botrytis compared to untreated fields"}]}]}
